Assay results from the supplement of paper PMC12819154, “High-throughput peptide-centric local stability assay extends protein–ligand identification to membrane proteins, tissues and bacteria” (Nature Structural & Molecular Biology, 2025).
Some of the results follow. Small differences around the control level are noise.

The chains behind the UniProt entries cited, without tags or fusion partners. Where a name states a change or a piece, a line headed by the entry shows the natural chain unless it says otherwise.
UniProt Q14565: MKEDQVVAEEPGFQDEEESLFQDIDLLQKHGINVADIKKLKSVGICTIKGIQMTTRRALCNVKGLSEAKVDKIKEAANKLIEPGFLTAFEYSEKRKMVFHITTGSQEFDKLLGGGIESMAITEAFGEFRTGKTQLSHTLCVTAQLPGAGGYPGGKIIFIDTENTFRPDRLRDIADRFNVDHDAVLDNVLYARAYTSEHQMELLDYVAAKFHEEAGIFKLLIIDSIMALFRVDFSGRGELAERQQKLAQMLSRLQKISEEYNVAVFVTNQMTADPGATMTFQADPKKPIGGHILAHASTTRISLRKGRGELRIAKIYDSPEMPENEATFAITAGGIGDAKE
UniProt Q13415: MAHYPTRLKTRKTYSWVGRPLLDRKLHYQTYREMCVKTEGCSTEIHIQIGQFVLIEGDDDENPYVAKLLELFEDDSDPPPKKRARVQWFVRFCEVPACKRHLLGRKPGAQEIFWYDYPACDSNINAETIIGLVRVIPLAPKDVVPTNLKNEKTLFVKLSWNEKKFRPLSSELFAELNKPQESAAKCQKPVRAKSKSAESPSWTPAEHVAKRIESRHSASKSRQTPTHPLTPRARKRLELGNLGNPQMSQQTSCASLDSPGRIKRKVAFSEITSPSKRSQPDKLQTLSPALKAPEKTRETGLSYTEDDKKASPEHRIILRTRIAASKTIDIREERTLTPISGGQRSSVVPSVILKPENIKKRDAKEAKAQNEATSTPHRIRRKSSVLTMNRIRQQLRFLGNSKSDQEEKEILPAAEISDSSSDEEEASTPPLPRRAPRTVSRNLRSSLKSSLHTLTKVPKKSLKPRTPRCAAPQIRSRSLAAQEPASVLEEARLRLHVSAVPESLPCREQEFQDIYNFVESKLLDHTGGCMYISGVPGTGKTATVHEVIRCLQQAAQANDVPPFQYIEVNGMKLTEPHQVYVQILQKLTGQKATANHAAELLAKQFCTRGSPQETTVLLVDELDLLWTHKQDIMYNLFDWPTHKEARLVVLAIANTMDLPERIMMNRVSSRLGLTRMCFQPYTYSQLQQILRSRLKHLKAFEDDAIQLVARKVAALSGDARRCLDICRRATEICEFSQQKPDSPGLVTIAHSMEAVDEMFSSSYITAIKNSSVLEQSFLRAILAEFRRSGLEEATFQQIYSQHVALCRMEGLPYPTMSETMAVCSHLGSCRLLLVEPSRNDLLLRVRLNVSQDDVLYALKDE
UniProt Q13258: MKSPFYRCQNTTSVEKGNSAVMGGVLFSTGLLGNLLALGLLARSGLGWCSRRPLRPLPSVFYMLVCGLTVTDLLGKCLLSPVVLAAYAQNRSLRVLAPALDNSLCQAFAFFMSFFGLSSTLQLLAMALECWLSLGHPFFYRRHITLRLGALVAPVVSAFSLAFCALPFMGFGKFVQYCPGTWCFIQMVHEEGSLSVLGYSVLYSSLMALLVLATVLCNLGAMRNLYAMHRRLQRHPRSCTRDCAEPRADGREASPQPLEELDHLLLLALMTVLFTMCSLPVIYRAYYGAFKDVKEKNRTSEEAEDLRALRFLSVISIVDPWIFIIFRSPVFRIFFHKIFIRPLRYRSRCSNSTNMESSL
UniProt Q15048: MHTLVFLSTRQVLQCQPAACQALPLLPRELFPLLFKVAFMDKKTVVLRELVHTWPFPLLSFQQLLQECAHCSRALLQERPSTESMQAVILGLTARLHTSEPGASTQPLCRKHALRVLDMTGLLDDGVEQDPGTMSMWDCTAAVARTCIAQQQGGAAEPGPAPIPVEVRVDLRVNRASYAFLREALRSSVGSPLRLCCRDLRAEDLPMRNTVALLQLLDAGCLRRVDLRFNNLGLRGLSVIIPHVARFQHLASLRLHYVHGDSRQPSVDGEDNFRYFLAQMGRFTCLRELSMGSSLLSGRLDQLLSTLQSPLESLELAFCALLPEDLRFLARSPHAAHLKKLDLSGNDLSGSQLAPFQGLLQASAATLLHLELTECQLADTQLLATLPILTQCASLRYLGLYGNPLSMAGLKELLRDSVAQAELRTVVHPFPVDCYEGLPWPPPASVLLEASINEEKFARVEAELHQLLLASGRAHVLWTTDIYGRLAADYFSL
UniProt Q14159: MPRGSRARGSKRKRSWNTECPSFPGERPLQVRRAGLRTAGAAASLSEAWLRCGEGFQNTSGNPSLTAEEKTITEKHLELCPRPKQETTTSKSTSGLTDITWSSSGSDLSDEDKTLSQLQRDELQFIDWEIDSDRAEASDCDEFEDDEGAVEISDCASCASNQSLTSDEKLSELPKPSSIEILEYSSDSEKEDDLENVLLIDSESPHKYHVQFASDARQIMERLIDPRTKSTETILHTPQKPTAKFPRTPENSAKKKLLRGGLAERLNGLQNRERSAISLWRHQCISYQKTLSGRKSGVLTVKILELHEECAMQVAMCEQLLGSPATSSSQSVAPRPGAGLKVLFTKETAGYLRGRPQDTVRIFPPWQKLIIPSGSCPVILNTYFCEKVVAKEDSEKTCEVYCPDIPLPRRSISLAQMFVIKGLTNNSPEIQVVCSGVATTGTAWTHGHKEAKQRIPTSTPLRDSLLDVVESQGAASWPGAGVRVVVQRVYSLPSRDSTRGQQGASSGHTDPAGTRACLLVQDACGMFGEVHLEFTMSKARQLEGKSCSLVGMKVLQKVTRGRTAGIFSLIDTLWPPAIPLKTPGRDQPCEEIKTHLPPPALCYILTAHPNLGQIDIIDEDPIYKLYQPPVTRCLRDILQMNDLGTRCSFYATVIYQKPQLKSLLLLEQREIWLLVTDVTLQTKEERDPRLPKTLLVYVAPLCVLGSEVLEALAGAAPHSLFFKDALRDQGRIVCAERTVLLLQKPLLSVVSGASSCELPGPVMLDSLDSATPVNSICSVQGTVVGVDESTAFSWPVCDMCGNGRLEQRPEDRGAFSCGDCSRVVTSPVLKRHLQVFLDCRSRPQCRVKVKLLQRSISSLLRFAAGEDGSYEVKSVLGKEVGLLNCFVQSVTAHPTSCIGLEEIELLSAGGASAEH
UniProt Q13608: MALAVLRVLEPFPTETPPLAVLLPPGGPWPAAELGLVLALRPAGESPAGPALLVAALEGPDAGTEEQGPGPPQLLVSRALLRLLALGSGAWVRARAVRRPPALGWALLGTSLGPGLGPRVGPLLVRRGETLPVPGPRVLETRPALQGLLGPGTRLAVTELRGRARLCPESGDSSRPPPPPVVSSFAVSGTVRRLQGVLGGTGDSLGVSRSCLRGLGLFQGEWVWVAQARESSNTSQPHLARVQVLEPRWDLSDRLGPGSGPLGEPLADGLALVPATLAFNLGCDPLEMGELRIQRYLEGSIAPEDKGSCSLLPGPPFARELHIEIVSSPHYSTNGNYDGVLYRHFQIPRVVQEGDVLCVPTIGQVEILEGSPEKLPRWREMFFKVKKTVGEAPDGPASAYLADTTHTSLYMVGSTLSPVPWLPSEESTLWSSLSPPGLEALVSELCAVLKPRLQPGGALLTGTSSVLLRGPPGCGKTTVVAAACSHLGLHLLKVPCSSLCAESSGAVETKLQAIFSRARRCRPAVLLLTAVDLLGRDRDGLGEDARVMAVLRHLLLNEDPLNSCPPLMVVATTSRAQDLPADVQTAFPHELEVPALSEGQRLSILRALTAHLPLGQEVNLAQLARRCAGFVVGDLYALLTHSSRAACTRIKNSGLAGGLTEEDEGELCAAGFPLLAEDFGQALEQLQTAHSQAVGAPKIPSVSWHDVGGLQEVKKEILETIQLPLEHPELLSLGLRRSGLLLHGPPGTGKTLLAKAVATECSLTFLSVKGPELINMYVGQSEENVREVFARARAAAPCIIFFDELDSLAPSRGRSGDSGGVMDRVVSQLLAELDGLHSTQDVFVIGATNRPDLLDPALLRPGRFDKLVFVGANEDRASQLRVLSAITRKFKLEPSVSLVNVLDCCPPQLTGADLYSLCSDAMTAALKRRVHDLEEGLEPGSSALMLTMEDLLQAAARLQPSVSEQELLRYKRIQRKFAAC
UniProt Q13636: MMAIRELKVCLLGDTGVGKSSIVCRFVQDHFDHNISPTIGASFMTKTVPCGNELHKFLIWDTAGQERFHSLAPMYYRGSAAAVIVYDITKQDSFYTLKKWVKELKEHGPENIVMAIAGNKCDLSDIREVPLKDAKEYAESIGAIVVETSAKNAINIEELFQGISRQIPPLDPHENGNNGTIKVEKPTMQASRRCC
UniProt Q14CZ7: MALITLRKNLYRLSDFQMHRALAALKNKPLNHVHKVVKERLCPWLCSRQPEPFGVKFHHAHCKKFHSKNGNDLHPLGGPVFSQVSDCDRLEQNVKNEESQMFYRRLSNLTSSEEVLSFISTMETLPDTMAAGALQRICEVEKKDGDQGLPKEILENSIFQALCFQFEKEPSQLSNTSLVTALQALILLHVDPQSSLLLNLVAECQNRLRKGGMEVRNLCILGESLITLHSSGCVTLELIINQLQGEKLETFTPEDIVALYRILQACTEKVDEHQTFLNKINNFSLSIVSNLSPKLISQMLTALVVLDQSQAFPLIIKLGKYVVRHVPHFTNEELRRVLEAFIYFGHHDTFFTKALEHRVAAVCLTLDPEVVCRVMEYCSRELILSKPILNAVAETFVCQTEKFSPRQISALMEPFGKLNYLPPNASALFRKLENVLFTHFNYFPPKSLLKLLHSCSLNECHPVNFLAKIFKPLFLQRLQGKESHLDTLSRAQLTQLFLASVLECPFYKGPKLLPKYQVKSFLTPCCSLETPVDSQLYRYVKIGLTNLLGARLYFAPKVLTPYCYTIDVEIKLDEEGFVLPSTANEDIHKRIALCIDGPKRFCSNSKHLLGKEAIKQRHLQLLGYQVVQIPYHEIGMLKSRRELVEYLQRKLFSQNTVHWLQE
UniProt Q14103: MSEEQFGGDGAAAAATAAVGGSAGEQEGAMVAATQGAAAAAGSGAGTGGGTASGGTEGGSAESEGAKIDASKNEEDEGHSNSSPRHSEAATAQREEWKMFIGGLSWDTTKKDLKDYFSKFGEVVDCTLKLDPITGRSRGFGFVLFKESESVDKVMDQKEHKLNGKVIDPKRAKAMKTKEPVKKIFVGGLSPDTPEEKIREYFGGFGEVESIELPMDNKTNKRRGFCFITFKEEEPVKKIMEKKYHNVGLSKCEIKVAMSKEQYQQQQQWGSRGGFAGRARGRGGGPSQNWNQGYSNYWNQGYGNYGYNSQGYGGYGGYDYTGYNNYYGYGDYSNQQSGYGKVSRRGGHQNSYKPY
UniProt Q14781, whole entry: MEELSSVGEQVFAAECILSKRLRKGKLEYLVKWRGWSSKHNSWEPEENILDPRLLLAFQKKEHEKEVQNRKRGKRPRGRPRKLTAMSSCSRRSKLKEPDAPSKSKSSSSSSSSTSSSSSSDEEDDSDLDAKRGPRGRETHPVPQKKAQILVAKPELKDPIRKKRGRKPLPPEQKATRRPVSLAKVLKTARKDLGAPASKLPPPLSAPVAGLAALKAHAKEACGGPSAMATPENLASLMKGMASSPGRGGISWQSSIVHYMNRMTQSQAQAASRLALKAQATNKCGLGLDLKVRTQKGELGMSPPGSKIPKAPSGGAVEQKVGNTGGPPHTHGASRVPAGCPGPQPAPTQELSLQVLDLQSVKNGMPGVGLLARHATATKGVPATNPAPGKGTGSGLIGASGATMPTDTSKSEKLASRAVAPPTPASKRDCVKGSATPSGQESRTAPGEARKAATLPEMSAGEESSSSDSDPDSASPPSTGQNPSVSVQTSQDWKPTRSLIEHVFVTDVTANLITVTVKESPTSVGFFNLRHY
UniProt Q13617, whole entry: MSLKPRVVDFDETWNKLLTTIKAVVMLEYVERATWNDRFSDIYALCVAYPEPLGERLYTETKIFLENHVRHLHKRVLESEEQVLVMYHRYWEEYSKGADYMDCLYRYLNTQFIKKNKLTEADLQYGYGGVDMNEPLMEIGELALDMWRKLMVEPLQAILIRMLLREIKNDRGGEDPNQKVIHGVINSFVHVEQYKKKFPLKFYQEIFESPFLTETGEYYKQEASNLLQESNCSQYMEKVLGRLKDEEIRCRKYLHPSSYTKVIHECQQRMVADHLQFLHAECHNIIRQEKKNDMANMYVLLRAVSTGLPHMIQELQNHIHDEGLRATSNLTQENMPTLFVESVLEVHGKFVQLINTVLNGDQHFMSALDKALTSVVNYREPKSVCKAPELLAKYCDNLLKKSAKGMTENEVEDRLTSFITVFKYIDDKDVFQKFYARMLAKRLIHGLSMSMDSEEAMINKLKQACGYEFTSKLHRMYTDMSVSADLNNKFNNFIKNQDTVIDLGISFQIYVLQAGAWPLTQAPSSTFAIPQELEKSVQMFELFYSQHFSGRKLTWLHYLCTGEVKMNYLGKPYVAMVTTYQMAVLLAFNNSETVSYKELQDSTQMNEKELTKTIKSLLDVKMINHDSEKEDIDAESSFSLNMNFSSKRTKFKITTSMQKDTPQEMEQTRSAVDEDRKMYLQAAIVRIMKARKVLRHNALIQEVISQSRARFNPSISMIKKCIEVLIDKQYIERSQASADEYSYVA

compound: CN[C@@H]1C[C@H]2O[C@@](C)([C@@H]1OC)n1c3ccccc3c3c4c(c5c6ccccc6n2c5c31)C(=O)NC4 [staurosporine]; test: log2 fold change of tryptic peptide abundance, ligand vs vehicle (limited proteolysis) (log2 ratio); higher = more trypsin-susceptible (destabilized); settings: ligand concentration: 20 uM; sample: K562 cleared lysate; digestion: 4 min, 22 C (HT-PELSA RT4min, Orbitrap Astral)

Row | Target | log2 fold change
1 | ARFRP1 (peptide sequence: TTFLEQSK, peptide start residue: 31) (UniProt Q13795) | 0.344
2 | UniProt Q14565 (peptide sequence: IIFIDTENTFRPDR, peptide start residue: 156) | -0.282
3 | DGKZ (peptide sequence: DAGPEPDKAPR, peptide start residue: 28) (UniProt Q13574) | 0.508
4 | MTF1 (peptide sequence: FVDKNGLVPSSSGTVYDR, peptide start residue: 29) (UniProt Q14872) | 0.184
5 | ORC1 (peptide sequence: LTEPHQVYVQILQK, peptide start residue: 573) (UniProt Q13415) | -0.651
6 | FKBP8 (peptide sequence: GKVLAQQGEYSEAIPILR, peptide start residue: 313) (UniProt Q14318) | -0.492
7 | IQGAP2 (peptide sequence: RQNIAYEYLCHLEEAKR, peptide start residue: 33) (UniProt Q13576) | 0.57
8 | SELENBP1 (peptide sequence: IYVVDVGSEPR, peptide start residue: 104) (UniProt Q13228) | -0.334
9 | UniProt Q13258 (peptide sequence: NLYAMHRR, peptide start residue: 224) | 0.109
10 | ESPL1 (peptide sequence: ALCLLELTLEHCRR, peptide start residue: 248) (UniProt Q14674) | 0.374
11 | UniProt Q14209 (peptide sequence: LAYVTYQDIR, peptide start residue: 296) | 0.245
12 | ATR (peptide sequence: QILCQFIDR, peptide start residue: 35) (UniProt Q13535) | -0.145
13 | LRRC14 (peptide sequence: GLSVIIPHVAR, peptide start residue: 236) (UniProt Q15048) | 0.401
14 | UniProt Q14159 (peptide sequence: HQCISYQK, peptide start residue: 282) | 0.126
15 | PEX6 (peptide sequence: IPSVSWHDVGGLQEVKK, peptide start residue: 699) (UniProt Q13608) | 1.79
16 | IRF3 (peptide sequence: SKDPHDPHK, peptide start residue: 97) (UniProt Q14653) | 0.0657
17 | KRR1 (peptide sequence: KTFDPYIIIR, peptide start residue: 106) (UniProt Q13601) | 0.715
18 | RAB31 (peptide sequence: VEKPTMQASR, peptide start residue: 182) (UniProt Q13636) | 0.139
19 | FASTKD3 (peptide sequence: IGLTNLLGAR, peptide start residue: 542) (UniProt Q14CZ7) | 0.52
20 | HNRNPD (peptide sequence: KYHNVGLSK, peptide start residue: 243) (UniProt Q14103) | 0.216
21 | CBX2 (peptide sequence: GSATPSGQESR, peptide start residue: 433) (UniProt Q14781) | -0.21
22 | UBE4A (peptide sequence: ELNDEER, peptide start residue: 469) (UniProt Q14139) | -0.356
23 | LBR (peptide sequence: FADGEVVR, peptide start residue: 6) (UniProt Q14739) | 0.289
24 | CIRBP (peptide sequence: YGQISEVVVVK, peptide start residue: 29) (UniProt Q14011) | -0.0952
25 | ARHGAP19 (peptide sequence: MFLGELPEPLLTHK, peptide start residue: 182) (UniProt Q14CB8) | 0.32
26 | CUL2 (peptide sequence: CIEVLIDK, peptide start residue: 721) (UniProt Q13617) | -0.202
27 | NCAPH (peptide sequence: TIEQNINNLNVSEADR, peptide start residue: 222) (UniProt Q15003) | 0.496
28 | FLNC (peptide sequence: AFGPGLEGGLVNK, peptide start residue: 1355) (UniProt Q14315) | 0.655
29 | GNL2 (peptide sequence: TYKIDSWENAEDFLEK, peptide start residue: 409) (UniProt Q13823) | 0.464
